No constants are given. Whether binding was seen depends on the method and setting. Some binding calls cover weakened binding; strength is not graded here.
Target: T1, Human WT P5CR1 (pyrroline-5-carboxylate reductase 1) (human), P32322
T1 chain: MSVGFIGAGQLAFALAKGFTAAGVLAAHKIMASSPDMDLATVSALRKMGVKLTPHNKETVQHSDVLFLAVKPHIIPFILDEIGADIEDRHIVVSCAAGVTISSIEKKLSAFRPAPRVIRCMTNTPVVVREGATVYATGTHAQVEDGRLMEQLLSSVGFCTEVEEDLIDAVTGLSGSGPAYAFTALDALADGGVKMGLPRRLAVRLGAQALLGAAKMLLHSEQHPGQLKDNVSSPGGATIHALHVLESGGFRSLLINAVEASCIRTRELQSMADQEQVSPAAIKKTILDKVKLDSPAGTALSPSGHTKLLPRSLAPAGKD
Experiment: SEC; Superdex-200 column; WT P5CR1; buffer not stated; both purified
Conditions: remark: other sources report otherwise

B1: Human WT P5CR1 (pyrroline-5-carboxylate reductase 1), P32322 1-319 (enzyme)
chain: MSVGFIGAGQLAFALAKGFTAAGVLAAHKIMASSPDMDLATVSALRKMGVKLTPHNKETVQHSDVLFLAVKPHIIPFILDEIGADIEDRHIVVSCAAGVTISSIEKKLSAFRPAPRVIRCMTNTPVVVREGATVYATGTHAQVEDGRLMEQLLSSVGFCTEVEEDLIDAVTGLSGSGPAYAFTALDALADGGVKMGLPRRLAVRLGAQALLGAAKMLLHSEQHPGQLKDNVSSPGGATIHALHVLESGGFRSLLINAVEASCIRTRELQSMADQEQVSPAAIKKTILDKVKLDSPAGTALSPSGHTKLLPRSLAPAGKD
- binding: binds

From PMC5286483, “Effect of R119G Mutation on Human P5CR1 Dynamic Property and Enzymatic Activity” (BioMed Research International, 2017)
